According to PubChem BioAssay AID1259354 (Paczesny and Yang Labs, IUPUI and University of Michigan, 2018):
“And” between values parts separate entries of the source, which are not always exact repeats. Equal entries are not always repeated. The campaign covered roughly 78,000 compounds. About 1,800 (2.3%) were called active. Inconclusive means that the source gave no clear call. Such entries were picked first, then a sample of the others. No stated cut-off is given here; in the data, active means inhibition above about 30%; inconclusive means mostly about 10% to 28%; inactive means weaker than that.

The chains behind the UniProt entries cited, without tags or fusion partners. Where a name states a change or a piece, a line headed by the entry shows the natural chain unless it says otherwise.
UniProt Q01638: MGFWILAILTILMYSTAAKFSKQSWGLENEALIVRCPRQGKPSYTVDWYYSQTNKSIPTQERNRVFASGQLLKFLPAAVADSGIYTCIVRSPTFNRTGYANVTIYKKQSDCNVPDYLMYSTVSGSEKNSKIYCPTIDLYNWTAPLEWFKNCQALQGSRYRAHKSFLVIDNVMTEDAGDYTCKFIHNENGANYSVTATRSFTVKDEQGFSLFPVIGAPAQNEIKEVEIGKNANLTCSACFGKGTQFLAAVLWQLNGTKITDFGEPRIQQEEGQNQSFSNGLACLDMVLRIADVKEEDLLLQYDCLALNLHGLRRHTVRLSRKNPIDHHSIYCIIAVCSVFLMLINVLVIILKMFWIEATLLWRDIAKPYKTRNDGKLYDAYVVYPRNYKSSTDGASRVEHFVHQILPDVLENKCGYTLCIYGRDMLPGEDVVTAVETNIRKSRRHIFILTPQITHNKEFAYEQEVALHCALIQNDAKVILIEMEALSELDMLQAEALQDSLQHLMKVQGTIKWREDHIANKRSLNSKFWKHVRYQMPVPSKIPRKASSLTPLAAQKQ

target: Interleukin-1 receptor-like 1 (Homo sapiens) (UniProt Q01638); assay: blocks human ST2 binding to IL-33, primary screen, biochemical, AlphaLISA (AID 1259354); details: AlphaLISA ST2-Fc/biotin-IL-33 interaction, 1 h; at 17 µM, active compounds read high

Row | Structure (SMILES) | inhibition
1 | CC1=C(C(=O)OCC2CCCCC2)C(c2ccc(Cl)c(Cl)c2)NC(=O)N1 (configuration not stated) | inactive
2 | O=S(=O)(Nc1cccc(Cl)c1)c1cccc2cccnc12 | inconclusive: 19%
3 | CSc1ccc(-c2nc(CSCC(=O)NCc3ccc(Cl)cc3)c(C)o2)cc1 | inconclusive: 16%
4 | CCNC(=O)N1Cc2[nH]cnc2C[C@H]1c1nc(-c2ccc(OC(F)(F)F)cc2)no1 | inconclusive: 14%
5 | Cc1ccc(-c2csc(C(N)=O)c2)c2cccnc12 | inactive
6 | O=C(COc1ccccc1)N1C[C@@H]2C[C@H](C1)c1c(NS(=O)(=O)c3ccccc3)ccc(=O)n1C2 | inconclusive: 13%
7 | CC(=O)Nc1ccc(C(=O)CSc2n[nH]c(-c3ccco3)n2)cc1 | inactive
8 | Cc1ccc(CC2(NC(=O)/C=C/c3cnn(C)c3)CC2)cc1 | inconclusive: 18%
9 | CN1C[C@@H](NC(=O)c2cccs2)C[C@H]1c1nc(-c2ccc(F)cc2)no1 | inconclusive: 11%
10 | COc1ccc(C(=O)CCC(=O)N2C[C@H]3C[C@H](O)[C@@H](O)C[C@H]3C2)cc1 | inconclusive: 11%
11 | Cn1cnc(SCC(=O)N2c3ccccc3C(C)(c3ccccc3)CC2(C)C)n1 (configuration not stated) | inconclusive: 14%
12 | O=C(NCc1ccc2sccc2c1)c1ccc(O)cc1 | inconclusive: 13%
13 | Cc1cc(S(=O)(=O)n2c(C)nc3ccccc32)ccc1Cl | inconclusive: 18%
14 | Cc1nnc([C@H]2CCN(Cc3ccccc3F)C2)o1 | inactive
15 | O=C(Nc1nccs1)c1ccc(NC(=O)C2CCCO2)cc1 (configuration not stated) | inconclusive: 14%
16 | COc1cccc(C2C3=C(CCCC3=O)Nc3nc(SCc4ccccc4F)nn32)c1 (configuration not stated) | inconclusive: 15% and inconclusive: 11%
17 | O=C(c1ccc(C2CCCO2)s1)N1C[C@@H]2[C@H](C1)[C@H]1CC[C@@H]2O1 (some centres not stated) | inactive
18 | O=C(O)CCCC(=O)N1N=C(c2ccc(Br)cc2)CC1c1cccc([N+](=O)[O-])c1 (configuration not stated) | inconclusive: 11%
19 | COc1cc(-c2ncnn2-c2sc3c(c2C#N)CCCCC3)ccc1O | inconclusive: 22%

Row | Structure (SMILES) | inhibition
20 | O=C(CN1C(=O)C2CCCCN2c2ccc(S(=O)(=O)N3CCCC3)cc21)N1CCCCC1 (configuration not stated) | inconclusive: 11%
21 | CCN(CCCNC(=O)c1cn(C)c(=O)c2c1c1ccccc1n2C)c1ccccc1 | inconclusive: 19%
22 | OCCc1c[nH]c2ccc(OCc3ccccc3)cc12 | inconclusive: 20%
23 | O=C(c1ccco1)N1CCCN(Cc2ccc(-n3cncn3)cc2)CC1 | inconclusive: 15%
24 | N#CC1=C(N)Oc2cc(O)ccc2C1c1cccc([N+](=O)[O-])c1 (configuration not stated) | inconclusive: 20%
25 | CCN(CC)CCNc1cc(C(F)(F)F)c(C#N)c2nc3ccccc3n12 | inconclusive: 14%
26 | CCCCN(C)C(=O)c1nc2ccccn2c1CNCc1c(OC)ccc2ccccc12 | inconclusive: 11%
27 | O[C@H]1[C@H](NCc2ccccn2)[C@H]2CO[C@H](O2)[C@@H]1N1CCC(Cc2ccccc2)CC1 | inconclusive: 11%
28 | N#CC1=C(SCC(N)=O)NC(=O)CC1c1ccc(Cl)cc1 (configuration not stated) | inconclusive: 22%
29 | COc1cccc(C2C(N3C(=O)c4ccccc4C3=O)C(=O)N2c2cccc(OC)c2)c1 (configuration not stated) | inconclusive: 25% and inconclusive: 12%
30 | CCOc1ccc(CN2C(=O)CCC2(C)C(=O)NC(C)CC)cc1OC (configuration not stated) | inconclusive: 26%
31 | COc1ccc(Cn2c(CNC(=O)c3cc(OC)cc(OC)c3)nc3cccnc32)cc1 | inconclusive: 15%
32 | COc1ccc2nc3sc(C(=O)Nc4ccc(OC)c(Cl)c4)cc3cc2c1 | inconclusive: 24%
33 | CSC(N)=NS(=O)(=O)c1ccc(C)cc1 | inactive
34 | O=C1C2CC=CCC2C(=O)N1CCc1ccccc1Cl (configuration not stated) | inactive
35 | Cc1nc2sc(C(c3ccc(Cl)cc3)N3CC(C)CC(C)C3)c(O)n2n1 (configuration not stated) | inconclusive: 14%
36 | CN(c1ccccc1)c1ccc(/C=C/[N+](=O)[O-])cc1 | active: 50%
37 | CC(C)(C)c1cc(C[C@H]2CNCC[C@H]2CC(=O)N2CCC(n3c(=O)[nH]c4ccccc43)CC2)no1 | inconclusive: 16%
38 | O=C(Nc1nc(-c2cc(Cl)sc2Cl)cs1)c1ccc([N+](=O)[O-])s1 | inconclusive: 11%

Row | Structure (SMILES) | inhibition
39 | CC(C)c1ccc(N(C(=O)COc2ccc(Cl)cc2)C2C=CS(=O)(=O)C2)cc1 (configuration not stated) | inactive
40 | CN(c1ccc(C(=O)Nc2ccc3c(c2)OCCO3)cc1)S(=O)(=O)c1ccccc1 | inconclusive: 15%
41 | Cc1ccccc1Nc1c(-c2ccco2)nc2ccc(Cl)cn12 | inconclusive: 24%
42 | COc1ccc(N2CC(NC(=O)C(=O)c3c(C)[nH]c4ccccc34)CC2=O)cc1 (configuration not stated) | inconclusive: 18%
43 | CCCCN(CC)S(=O)(=O)c1ccc2[nH]c(=O)cc(C(=O)NC3CCCC3)c2c1 | inactive
44 | CSCCC(C)N1CCC(Oc2ccc(C(=O)NC3CCCC3)cc2Cl)CC1 (configuration not stated) | inactive
45 | OCc1ccc(-c2nccn2CCn2cccn2)o1 | inconclusive: 17%
46 | COc1ccc(NC(=O)C2CCN(C(=O)c3ccc(OC)c(OC)c3)CC2)cc1OC | inactive
47 | COc1cc(CN2C(=O)c3ccc(F)cc3C2=O)cc(OC)c1OC | inactive
48 | O=C1C(=O)N(CNc2ccc(Br)cc2)c2ccccc21 | inconclusive: 16%
49 | CC(C)Oc1ccc(C(=O)N(c2ccc(Br)cc2)C2C=CS(=O)(=O)C2)cc1 (configuration not stated) | inconclusive: 13%
50 | CC(C)c1ccc(NC(=O)O[C@@H]2CO[C@H]3[C@@H]2OC[C@@H]3NC(=O)N2CCOCC2)cc1 | inconclusive: 17%
51 | O=S(=O)(NCc1ccccc1)N1CCCCC1CCn1cccn1 (configuration not stated) | inconclusive: 18%
52 | O=C(CCN1CCCCCCC1)NCCc1nc(-c2cccnc2)no1 | inactive
53 | Cc1ccc(C)c(NC(=O)CC(C)(C)C)c1 | inactive
54 | CC(=O)Nc1cc(Cl)ccc1OCc1cc(=O)n2oc(C)cc2n1 | inactive
55 | COCCn1c(=O)[nH]c2cc(C(=O)NCc3ccc4c(c3)OCO4)ccc2c1=O | inconclusive: 12%
56 | O=C(c1ccc(F)cc1)N1C[C@@H]2C[C@H](C1)c1ccc(NS(=O)(=O)c3cccc(F)c3)c(=O)n1C2 | inconclusive: 18%
57 | CC(=O)C1=C(C)Nc2ncnn2C1c1ccccc1Cl (configuration not stated) | inconclusive: 11%

Molecules shown so far with a furan ring, fused or not, in the order listed:
Row | Structure (SMILES) | inhibition
7 | CC(=O)Nc1ccc(C(=O)CSc2n[nH]c(-c3ccco3)n2)cc1 | inactive
23 | O=C(c1ccco1)N1CCCN(Cc2ccc(-n3cncn3)cc2)CC1 | inconclusive: 15%
41 | Cc1ccccc1Nc1c(-c2ccco2)nc2ccc(Cl)cn12 | inconclusive: 24%
45 | OCc1ccc(-c2nccn2CCn2cccn2)o1 | inconclusive: 17%

Numbers 44–45, quoted:
Row | Structure (SMILES) | inhibition
44 | CSCCC(C)N1CCC(Oc2ccc(C(=O)NC3CCCC3)cc2Cl)CC1 (configuration not stated) | inactive
45 | OCc1ccc(-c2nccn2CCn2cccn2)o1 | inconclusive: 17%
